Results as given in patent US20230181556A1, “USE OF PSYCHOTROPIC DRUGS FOR THE TREATMENT OF CORONAVIRUS INFECTIONS” (priority 2020, published 2023).

System: SARS-CoV-2 clinical isolates D614G
Format: cell-based

Clc1ccc2c(c1)CCc1cccnc1C2=C1CCNCC1 [Desloratadine]
IC50: 5.75 µM
